Hit rate of the full screen: of about 390,000 compounds, about 820 (0.21%) were called active. The shares of active, inactive and inconclusive entries below differ from those in the screen. Calls follow the shape of the dose curve; as a rule, active = well fitted inhibition curve with a large enough effect; inconclusive = small, poorly fitted or top-dose-only effect, or another doubt; inactive = no such curve, though single readings can be large or run the other way. Potencies of inconclusive entries are doubtful fits and often do not repeat.
These compounds were tested against Histone acetyltransferase KAT2A (Homo sapiens) (UniProt Q92830) (assay: qHTS Assay for Inhibitors of GCN5L2). Conditions: GCN5L2 HAT assay, ThioGlo1 CoA-SH fluorescence; activity change, negative = inhibition: at 58.9 µM (top of the series) unless noted.
Outline: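 ThioGlo1-coupled HAT assay: 20nM GCN5L2, 70uM acetyl-CoA, 75uM H3(1-25) peptide, pH 7.5. Fluorescence read at 340/540nm at start and after 20 min at room temperature.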
% is scaled to controls: 0 for no effect and ±100 for the full control effect; potency is read from the fitted curve at half-maximal effect.

Amino acid sequences for entries named in this document (tags omitted).
UniProt Q92830, whole entry, looked up: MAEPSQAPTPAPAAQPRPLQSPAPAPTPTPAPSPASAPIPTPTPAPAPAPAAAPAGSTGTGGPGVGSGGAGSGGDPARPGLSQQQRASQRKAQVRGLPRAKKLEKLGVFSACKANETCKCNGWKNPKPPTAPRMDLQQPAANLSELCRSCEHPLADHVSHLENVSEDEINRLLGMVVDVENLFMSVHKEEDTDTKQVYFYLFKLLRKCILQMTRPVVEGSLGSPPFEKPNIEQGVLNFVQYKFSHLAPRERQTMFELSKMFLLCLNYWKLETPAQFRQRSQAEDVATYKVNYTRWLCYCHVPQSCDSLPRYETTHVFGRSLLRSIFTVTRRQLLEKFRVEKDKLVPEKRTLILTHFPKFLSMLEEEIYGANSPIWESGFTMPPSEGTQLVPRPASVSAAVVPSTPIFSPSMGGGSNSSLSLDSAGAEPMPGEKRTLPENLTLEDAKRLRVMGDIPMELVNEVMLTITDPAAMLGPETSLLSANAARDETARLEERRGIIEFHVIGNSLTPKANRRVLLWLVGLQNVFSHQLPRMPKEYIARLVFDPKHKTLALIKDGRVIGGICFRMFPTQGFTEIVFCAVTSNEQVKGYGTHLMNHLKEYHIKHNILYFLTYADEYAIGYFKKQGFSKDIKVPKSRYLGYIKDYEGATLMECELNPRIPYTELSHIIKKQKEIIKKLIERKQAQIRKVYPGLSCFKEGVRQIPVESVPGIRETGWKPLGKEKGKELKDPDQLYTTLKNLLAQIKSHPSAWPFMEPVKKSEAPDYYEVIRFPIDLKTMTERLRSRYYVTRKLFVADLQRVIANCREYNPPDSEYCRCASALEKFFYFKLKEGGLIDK

| SMILES | Potency | activity change, negative = inhibition |
| --- | --- | --- |
| CCSC1=NSC2=NC(=O)/C(=C\c3coc4ccccc4c3=O)C(=N)N12 | inconclusive: 39.8 µM [inhibitor, single point] |  |
| CCC1C(=O)NCCN1C(=O)c1ccc(OC)c(OC2CCN(C(C)=O)CC2)c1 (centres undefined) | inconclusive: 0.355 µM [inhibitor, full curve, poor fit] |  |
| Cc1ccc(-n2nc3c(c2NC(=O)c2c(-c4ccccc4Cl)noc2C)CSC3)cc1 | inconclusive: 5.62 µM [inhibitor, single point] |  |
| COc1ccccc1C(=O)OCc1cc(=O)n2nc(C3CCCCC3)sc2n1 |  | inactive: -6.9% |
| Brc1ccc(CSc2nnc(-c3cccnc3)o2)cc1 | inconclusive: 39.8 µM [inhibitor, single point] |  |
| O=C(c1cccs1)N1CCN=C1SCc1ccccc1 | inconclusive: 22.4 µM [inhibitor, partial curve, poor fit] |  |
| CC(Oc1ccc(Cl)cc1Cl)/C(N)=N/O (centres undefined) | inconclusive: 39.8 µM [inhibitor, single point] |  |
| O=C(CSc1nnc2ccccn12)Nc1ccccc1C(=O)NC1CC1 | inconclusive: 0.141 µM [inhibitor, full curve, poor fit] |  |
| CCc1ccc(/C=C2\SC(=S)N(CCCC(=O)Nc3ccccc3C(=O)O)C2=O)cc1 | inconclusive: 39.8 µM [inhibitor, single point] |  |
| O=c1c(Cl)c(N2CCC3(CC2)OCCO3)cnn1C12CC3CC(CC(C3)C1)C2 |  | inactive: -22.3% |
| CC(C)CN1C(=O)NC2(CCCc3ccccc32)C1=O (centres undefined) | inconclusive: 8.91 µM [inhibitor, full curve, poor fit] |  |
| Cc1c(NC(=O)CN2C(=O)NC3(CCC(C)CC3)C2=O)c(=O)n(-c2ccccc2)n1C (centres undefined) | inconclusive: 7.08 µM [inhibitor, single point] |  |
| Nc1cccc(-c2nnc3n2CCCCC3)c1 |  | inactive: -14.4% |
| CCC(=O)Nc1ccc2c(c1)C(=O)N(C)C2=O |  | inconclusive: -32.1% [inhibitor] |
| CCc1ccc(-c2cc(C(=O)Nc3ccc(S(=O)(=O)NC(C)=O)cc3)c3ccccc3n2)cc1 | inconclusive: 0.447 µM [inhibitor, full curve, poor fit] |  |
| O=C(Nc1scc(-c2ccccc2)c1C(=O)O)c1ccccc1F |  | inactive: 1.75% |
| Cn1nnnc1Sc1ncnc2scc(-c3cccs3)c12 | inconclusive: 39.8 µM [inhibitor, single point] |  |
| CC(C)C(=O)Nc1ccc(NC(=S)NC(=O)c2ccccc2F)cc1 | inconclusive: 4.47 µM [inhibitor, full curve, poor fit] |  |
| COC(=O)C1=C(C(=O)OC)SC(=C2C(=S)C(C)(C)N(C(=O)CC(C)C)c3ccccc32)S1 |  | inactive: -1.81% |

Exported comma-delimited: 2 of the compounds above
SMILES,Potency,"activity change, negative = inhibition"
CC(C)C(=O)Nc1ccc(NC(=S)NC(=O)c2ccccc2F)cc1,"inconclusive: 4.47 µM [inhibitor, full curve, poor fit]",
COC(=O)C1=C(C(=O)OC)SC(=C2C(=S)C(C)(C)N(C(=O)CC(C)C)c3ccccc32)S1,,inactive: -1.81%

From PubChem BioAssay AID504327 (National Center for Advancing Translational Sciences (NCATS), 2011)
